# Results are given in words; binding and its absence hold for the method and conditions named. Binding seen in cells or lysates may run through a third protein. Some binding calls cover weakened binding; strength is not graded here.
# Amino acid sequences for entries named in this document (tags omitted). A change or cut given only in a name is not applied to a line headed by its entry.
# UniProt Q9Y490: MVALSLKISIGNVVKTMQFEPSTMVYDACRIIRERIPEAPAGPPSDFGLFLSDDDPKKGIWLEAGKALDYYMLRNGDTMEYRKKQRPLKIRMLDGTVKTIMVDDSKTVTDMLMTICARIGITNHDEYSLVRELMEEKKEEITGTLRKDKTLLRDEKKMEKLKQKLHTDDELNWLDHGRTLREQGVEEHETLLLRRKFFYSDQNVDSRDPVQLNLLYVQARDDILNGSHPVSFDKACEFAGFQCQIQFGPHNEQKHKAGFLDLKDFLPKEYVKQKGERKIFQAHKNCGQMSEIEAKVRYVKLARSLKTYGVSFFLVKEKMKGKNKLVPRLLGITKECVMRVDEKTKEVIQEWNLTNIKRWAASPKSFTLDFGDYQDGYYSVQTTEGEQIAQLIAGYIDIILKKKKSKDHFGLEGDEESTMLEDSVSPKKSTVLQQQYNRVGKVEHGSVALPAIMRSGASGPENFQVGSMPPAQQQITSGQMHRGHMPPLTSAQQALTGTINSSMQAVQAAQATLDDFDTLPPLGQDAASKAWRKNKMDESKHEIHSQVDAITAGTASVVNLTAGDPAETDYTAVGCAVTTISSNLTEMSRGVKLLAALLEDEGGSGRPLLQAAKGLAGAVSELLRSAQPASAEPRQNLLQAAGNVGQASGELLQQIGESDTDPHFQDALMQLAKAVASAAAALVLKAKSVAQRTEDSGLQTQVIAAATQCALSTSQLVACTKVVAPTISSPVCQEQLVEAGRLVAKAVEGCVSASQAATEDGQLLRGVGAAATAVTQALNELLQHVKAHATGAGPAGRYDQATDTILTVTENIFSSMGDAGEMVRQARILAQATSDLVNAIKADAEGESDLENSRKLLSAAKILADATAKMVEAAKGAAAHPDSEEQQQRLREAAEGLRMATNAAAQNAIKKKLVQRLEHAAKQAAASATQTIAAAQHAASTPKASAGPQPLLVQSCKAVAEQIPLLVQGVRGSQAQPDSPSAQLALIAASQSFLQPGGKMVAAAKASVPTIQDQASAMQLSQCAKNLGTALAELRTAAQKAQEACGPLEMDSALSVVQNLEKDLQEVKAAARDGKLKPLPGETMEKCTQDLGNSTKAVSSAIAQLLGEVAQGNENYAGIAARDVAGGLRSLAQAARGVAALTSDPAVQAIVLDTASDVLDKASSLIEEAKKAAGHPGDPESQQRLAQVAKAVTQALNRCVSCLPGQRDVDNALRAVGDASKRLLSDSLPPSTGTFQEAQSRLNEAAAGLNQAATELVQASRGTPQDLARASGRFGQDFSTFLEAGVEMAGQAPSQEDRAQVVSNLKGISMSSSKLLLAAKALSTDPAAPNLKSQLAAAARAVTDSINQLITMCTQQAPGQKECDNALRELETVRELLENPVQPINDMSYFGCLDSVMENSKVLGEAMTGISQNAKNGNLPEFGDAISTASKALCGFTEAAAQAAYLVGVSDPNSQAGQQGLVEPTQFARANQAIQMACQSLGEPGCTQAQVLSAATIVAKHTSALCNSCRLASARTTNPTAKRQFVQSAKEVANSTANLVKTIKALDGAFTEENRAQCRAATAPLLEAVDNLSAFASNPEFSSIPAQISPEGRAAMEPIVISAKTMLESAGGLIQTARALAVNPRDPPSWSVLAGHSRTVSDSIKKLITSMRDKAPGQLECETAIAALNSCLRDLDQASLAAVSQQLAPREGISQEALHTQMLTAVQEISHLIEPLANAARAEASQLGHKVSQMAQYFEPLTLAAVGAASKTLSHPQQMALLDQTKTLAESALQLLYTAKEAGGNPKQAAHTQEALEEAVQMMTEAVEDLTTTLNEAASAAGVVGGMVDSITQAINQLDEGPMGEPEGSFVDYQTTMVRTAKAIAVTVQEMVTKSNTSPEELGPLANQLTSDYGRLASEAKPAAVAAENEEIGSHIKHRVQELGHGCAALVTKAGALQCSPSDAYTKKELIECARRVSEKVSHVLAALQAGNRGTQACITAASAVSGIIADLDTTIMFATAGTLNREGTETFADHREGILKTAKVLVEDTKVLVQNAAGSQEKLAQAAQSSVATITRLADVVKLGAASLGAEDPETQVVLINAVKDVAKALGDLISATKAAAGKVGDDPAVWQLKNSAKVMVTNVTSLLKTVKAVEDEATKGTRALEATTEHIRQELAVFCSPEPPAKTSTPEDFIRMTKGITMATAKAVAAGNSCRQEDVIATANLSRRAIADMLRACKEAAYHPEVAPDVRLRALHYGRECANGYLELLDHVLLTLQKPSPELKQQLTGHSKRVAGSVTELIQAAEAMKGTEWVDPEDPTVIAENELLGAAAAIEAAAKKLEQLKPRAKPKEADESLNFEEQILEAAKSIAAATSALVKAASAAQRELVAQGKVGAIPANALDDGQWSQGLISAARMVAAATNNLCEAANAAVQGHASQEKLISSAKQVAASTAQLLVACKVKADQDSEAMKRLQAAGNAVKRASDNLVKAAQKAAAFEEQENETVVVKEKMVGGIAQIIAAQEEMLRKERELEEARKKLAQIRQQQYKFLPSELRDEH
# UniProt P05556: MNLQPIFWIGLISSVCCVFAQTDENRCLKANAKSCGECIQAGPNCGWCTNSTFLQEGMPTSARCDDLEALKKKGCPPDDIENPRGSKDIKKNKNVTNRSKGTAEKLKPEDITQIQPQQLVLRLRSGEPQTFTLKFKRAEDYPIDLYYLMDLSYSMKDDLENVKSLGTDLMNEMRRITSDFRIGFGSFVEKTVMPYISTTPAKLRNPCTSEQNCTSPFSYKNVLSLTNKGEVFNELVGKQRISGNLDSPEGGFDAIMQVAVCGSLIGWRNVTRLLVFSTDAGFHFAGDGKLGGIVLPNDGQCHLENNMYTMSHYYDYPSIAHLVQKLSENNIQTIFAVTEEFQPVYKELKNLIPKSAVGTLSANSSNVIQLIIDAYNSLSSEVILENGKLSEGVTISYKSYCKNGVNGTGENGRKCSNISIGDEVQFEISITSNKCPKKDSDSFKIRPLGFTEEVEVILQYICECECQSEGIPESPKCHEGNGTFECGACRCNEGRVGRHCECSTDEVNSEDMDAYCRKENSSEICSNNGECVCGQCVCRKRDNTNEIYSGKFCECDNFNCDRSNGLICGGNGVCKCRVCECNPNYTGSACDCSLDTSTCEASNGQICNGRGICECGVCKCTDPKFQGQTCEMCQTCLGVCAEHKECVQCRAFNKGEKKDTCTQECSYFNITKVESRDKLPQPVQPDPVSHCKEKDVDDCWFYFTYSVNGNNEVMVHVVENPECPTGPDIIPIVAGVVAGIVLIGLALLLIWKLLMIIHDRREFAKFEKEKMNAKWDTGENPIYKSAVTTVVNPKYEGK
# Target: Talin1 (human (endogenous in hCAFs)) (UniProt Q9Y490)
# Test: co-IP; hCAFs (control shSCR or Ddr2-depleted shDDR2), serum starved, plated on collagen I coated plates or no collagen for 1 hr; lysed in 20 mM Tris pH 7.5, 1% Triton X-100, 0.1% SDS, 150 mM CaCl2; precipitated with talin1 antibody and Protein G Sepharose; blotted for integrin β1
substance,measurement,value
β1 Integrin (from UniProt P05556 21-798) (receptor),binding,binds

# From publication PMC6555593
